## Primary screen of a compound library

By UniProt entry, the sequences of proteins in these tests, tags left out.
UniProt P9WFT3, whole entry: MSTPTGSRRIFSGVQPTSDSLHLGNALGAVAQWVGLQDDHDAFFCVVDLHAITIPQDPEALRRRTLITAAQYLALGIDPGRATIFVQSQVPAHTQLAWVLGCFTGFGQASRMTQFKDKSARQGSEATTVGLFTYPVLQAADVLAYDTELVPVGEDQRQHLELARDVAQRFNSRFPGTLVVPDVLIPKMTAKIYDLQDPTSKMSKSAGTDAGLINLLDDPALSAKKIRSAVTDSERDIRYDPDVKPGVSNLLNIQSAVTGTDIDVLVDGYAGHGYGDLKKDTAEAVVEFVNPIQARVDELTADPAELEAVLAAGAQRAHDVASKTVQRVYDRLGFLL
UniProt P9WPC5, whole entry: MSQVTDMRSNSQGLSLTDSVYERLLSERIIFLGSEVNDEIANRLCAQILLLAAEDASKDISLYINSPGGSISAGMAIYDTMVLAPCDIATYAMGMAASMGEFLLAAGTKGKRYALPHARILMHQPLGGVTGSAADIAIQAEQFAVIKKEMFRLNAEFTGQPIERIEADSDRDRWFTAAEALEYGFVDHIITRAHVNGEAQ
UniProt P9WPC3, whole entry partner: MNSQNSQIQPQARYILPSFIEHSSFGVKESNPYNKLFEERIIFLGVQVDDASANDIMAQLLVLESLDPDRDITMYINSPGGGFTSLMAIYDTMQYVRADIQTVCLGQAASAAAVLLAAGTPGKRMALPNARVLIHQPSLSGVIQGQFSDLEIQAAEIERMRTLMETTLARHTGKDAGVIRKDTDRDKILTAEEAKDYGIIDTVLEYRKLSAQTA

Source: ChEMBL document CHEMBL3988442, “University of Dundee, Small-Polar-MMV Screening Library” (2021).

Results are given as percent effect. How 0% and 100% were set is not recorded. Most values in the screen are low, and negative values occur. The compounds are a random part of those screened. A dash means the value is not listed here; it may have been measured.

MtTrpRS: 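Tryptophan-tRNA ligase, Mycobacterium tuberculosis (UniProt P9WFT3). Enzyme assay of tryptophanyl-tRNA synthetase; the read-out is not stated. Tested at 10 µM. Higher most likely means stronger inhibition; the record gives no direction and few retests gave an IC50. Of about 65,000 compounds tested this way, about 64 (0.098%) reached 50% or more in at least one test.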
ClpP1P2: 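Protease assay of ClpP1P2, read by the AMC dye that it sets free. Target: ClpP1P2, Mycobacterium tuberculosis (UniProt P9WPC5 and UniProt P9WPC3). Concentration: 50 µM. Direction is inferred from only a few compounds that gave an IC50; most scored high, so higher reads as stronger inhibition. Most other retested compounds had strongly negative values. Size under these conditions: about 69,000 compounds, about 10 of them at 50% or above in at least one test.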

* CCS(=O)(=O)N1Cc2ccccc2CC1C(=O)OCc1cc(C)no1 (centres unmarked) | MtTrpRS: -0.07127%; ClpP1P2: -5.452%
* CCN(CC)C(CNC(=O)c1ccc(S(=O)(=O)NC)cc1)c1ccco1 (centres unmarked) | MtTrpRS: -3.422%; ClpP1P2: -4.568%
* Cc1nc(CN2CCN(c3ccc4nncn4n3)C(C)C2)oc1C (centres unmarked) | MtTrpRS: 3.213%; ClpP1P2: -11.43%
* Cc1cn(-c2ccccc2)nc1NS(=O)(=O)c1cccc(C(=O)O)c1 | MtTrpRS: -4.205%; ClpP1P2: -10.79%
* O=C([C@H]1CCCO1)N1CC[C@H](O)[C@@H]1Cc1ccncc1 | MtTrpRS: -6.064%; ClpP1P2: -11.54%
* CCC1CN(C(=O)NCc2cccnc2-n2cccn2)CCO1 (centres unmarked) | MtTrpRS: -0.6555%; ClpP1P2: -16.29%
* CN(C(=O)NCc1nccn1CCc1ccccc1)C1CCC1 | MtTrpRS: 4.523%; ClpP1P2: -19.23%
* O=C(CC1CCCC1)NCCNCc1cccc2c1OCCO2 | MtTrpRS: -0.7401%; ClpP1P2: -9.862%
* c1ccc(SCCN2CCCC(Cn3ccnc3)C2)cc1 (centres unmarked) | MtTrpRS: -0.5696%; ClpP1P2: -9.898%
* O=C(CCN1CCOCC1)Nc1cccc(CNCc2ccsc2)c1 | MtTrpRS: 1.943%; ClpP1P2: 4.019%
* CCc1nnc(CN(C)c2nccc(N3CCCC(O)C3)n2)o1 (centres unmarked) | MtTrpRS: 14.72%; ClpP1P2: 8.597%
* CC(C)CCNC(=O)c1c(-n2cnnn2)sc2c1CCCC2 | MtTrpRS: -4.203%; ClpP1P2: -3.728%
* CCOCC(O)CN1CCN(C(=O)Cc2ccc(C)nc2)CC1 (centres unmarked) | MtTrpRS: 4.874%; ClpP1P2: 17.21%
* Cn1c(CN2CCCCC2)cc(=O)c(O)c1CN1CCCCC1 | MtTrpRS: 1.455%; ClpP1P2: -16.86%
* c1c[nH]c(CN2CCC3(CC2)COCCN(CCN2CCCC2)C3)c1 | MtTrpRS: -0.6783%; ClpP1P2: -6.917%
* OCc1ccc(N2CCN(c3ncccn3)CC2)c(F)c1 | MtTrpRS: -1.521%; ClpP1P2: 2.735%
* CCOc1cccc(CNc2ccccc2C(=O)OC)c1O | MtTrpRS: 3.417%; ClpP1P2: -40.64%
* COc1ccc2c(c1)C(C(=O)NCCN1CCNC1=O)CC(=O)N2 (centres unmarked) | MtTrpRS: 2.418%; ClpP1P2: -2.658%
* CC1(C(=O)N2CCOCC2)CN(Cc2ccccn2)CCO1 (centres unmarked) | MtTrpRS: -3.428%; ClpP1P2: 5.67%
* CCC(C(=O)NCc1ccn(-c2ccc(F)cc2)n1)N1CCCC1=O (centres unmarked) | MtTrpRS: 9.647%; ClpP1P2: -5.475%
* CC(=O)N1CC2(CCNCC2)c2cc(Cl)ccc21 | MtTrpRS: -4.809%; ClpP1P2: 3.38%
* Cc1cc(C)n(CC2CN(CC(=O)Nc3nncs3)CCO2)n1 (centres unmarked) | MtTrpRS: 0.2398%; ClpP1P2: -6.67%
* CC(=O)c1cccc(S(=O)(=O)N2CCC(c3noc(C)n3)CC2)c1 | MtTrpRS: -1.715%; ClpP1P2: 6.751%
* Cc1cc(C)n(CC2CN(CC(=O)NCc3cccs3)CCO2)n1 (centres unmarked) | MtTrpRS: 23.22%; ClpP1P2: -5.203%
* CNCc1cc(F)ccc1Oc1ccc(F)cc1 | ClpP1P2: 12.8%
* Clc1ccccc1C1(c2ccnc(C3CC3)n2)CCNCC1 | MtTrpRS: 0.3228%; ClpP1P2: 4.686%
* COCCN1CCC(NC(=O)Cn2cc(C)c3ccccc32)CC1 | MtTrpRS: 4.34%; ClpP1P2: -3.519%
* CC(C)(CCS(C)(=O)=O)CNc1ccc2ccc(F)cc2n1 | MtTrpRS: 2.801%; ClpP1P2: 23.82%
* COc1cc(C)nc(N2CCN(C(=O)CCc3ccco3)CC2)n1 | MtTrpRS: -2.584%; ClpP1P2: -3.806%
* Cc1cncc(C(=O)N2CCC3(CC2)C(=O)Nc2ccccc23)c1 | MtTrpRS: -1.104%; ClpP1P2: -5.399%
* CCC(C)N(Cc1ccncc1)C(=O)CCSC (centres unmarked) | MtTrpRS: 2.408%; ClpP1P2: -15.49%
* N#CCCN(CC1CCOC1)S(=O)(=O)c1c(F)cccc1Cl (centres unmarked) | MtTrpRS: -2.816%; ClpP1P2: -6.982%
* CN(Cc1cccnc1)C[C@H]1OC[C@@H]2CCN(c3ncccn3)C[C@@H]21 | MtTrpRS: -3.516%; ClpP1P2: 1.839%
* Cc1cnn(C2CCCN(C(=O)CCc3ccncc3)C2)c1 (centres unmarked) | MtTrpRS: -7.045%; ClpP1P2: -16.63%
* NC(=O)c1c(SCCN2CCCCC2)sc2c(O)cc(=O)[nH]c12 | MtTrpRS: 10.56%; ClpP1P2: -16.26%
* CCC(C#N)NC(=O)CCNC(=O)C(C)(C)C (centres unmarked) | MtTrpRS: -2.639%; ClpP1P2: -0.8127%
* CCc1nc(NS(=O)(=O)c2ccc(F)cc2Cl)no1 | MtTrpRS: 0.000007%; ClpP1P2: -9.212%

Some entries from above, unchanged:

structure	MtTrpRS	ClpP1P2
CNCc1cc(F)ccc1Oc1ccc(F)cc1	-	12.8%
N#CCCN(CC1CCOC1)S(=O)(=O)c1c(F)cccc1Cl (centres unmarked)	-2.816%	-6.982%